Reference: doi:10.1101/2024.09.05.611528
These are yes or no findings as the source states them, for the method shown. In cells and extracts the contact can be indirect. A result given as binding can be weak or reduced; the word gives no strength.

The chains behind the UniProt entries cited, without tags or fusion partners. Where a name states a change or a piece, a line headed by the entry shows the natural chain unless it says otherwise.
UniProt Q4ZGE4: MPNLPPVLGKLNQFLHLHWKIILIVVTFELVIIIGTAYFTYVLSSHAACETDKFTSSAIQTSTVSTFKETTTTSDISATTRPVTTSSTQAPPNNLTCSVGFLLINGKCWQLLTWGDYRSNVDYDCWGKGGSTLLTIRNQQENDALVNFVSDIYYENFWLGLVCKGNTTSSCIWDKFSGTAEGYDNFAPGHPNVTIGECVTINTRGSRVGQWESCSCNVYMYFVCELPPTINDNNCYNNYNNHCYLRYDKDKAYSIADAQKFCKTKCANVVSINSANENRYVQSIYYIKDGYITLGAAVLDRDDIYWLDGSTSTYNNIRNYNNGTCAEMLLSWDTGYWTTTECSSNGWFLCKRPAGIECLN
UniProt Q9XUN6: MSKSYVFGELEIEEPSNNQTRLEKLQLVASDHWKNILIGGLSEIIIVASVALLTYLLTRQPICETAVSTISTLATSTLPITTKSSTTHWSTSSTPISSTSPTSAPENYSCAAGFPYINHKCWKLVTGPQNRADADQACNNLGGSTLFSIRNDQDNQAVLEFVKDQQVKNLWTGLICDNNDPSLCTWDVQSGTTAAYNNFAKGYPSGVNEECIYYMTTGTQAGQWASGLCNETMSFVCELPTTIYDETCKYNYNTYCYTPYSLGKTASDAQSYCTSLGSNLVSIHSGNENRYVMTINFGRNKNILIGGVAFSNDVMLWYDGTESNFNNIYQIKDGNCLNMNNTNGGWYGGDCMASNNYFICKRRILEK

Target: CLEC-36 (C. elegans) (UniProt Q4ZGE4)
Assay: co-IP

## CLEC-26 (from UniProt Q9XUN6) (receptor)
  binding: binds
